Measured values reported in article PMC4534575, “The RNA Helicase DHX34 Activates NMD by Promoting a Transition from the Surveillance to the Decay-Inducing Complex” (Cell Reports, 2014).

Amino acid sequences for entries named in this document (tags omitted).
UniProt Q09161: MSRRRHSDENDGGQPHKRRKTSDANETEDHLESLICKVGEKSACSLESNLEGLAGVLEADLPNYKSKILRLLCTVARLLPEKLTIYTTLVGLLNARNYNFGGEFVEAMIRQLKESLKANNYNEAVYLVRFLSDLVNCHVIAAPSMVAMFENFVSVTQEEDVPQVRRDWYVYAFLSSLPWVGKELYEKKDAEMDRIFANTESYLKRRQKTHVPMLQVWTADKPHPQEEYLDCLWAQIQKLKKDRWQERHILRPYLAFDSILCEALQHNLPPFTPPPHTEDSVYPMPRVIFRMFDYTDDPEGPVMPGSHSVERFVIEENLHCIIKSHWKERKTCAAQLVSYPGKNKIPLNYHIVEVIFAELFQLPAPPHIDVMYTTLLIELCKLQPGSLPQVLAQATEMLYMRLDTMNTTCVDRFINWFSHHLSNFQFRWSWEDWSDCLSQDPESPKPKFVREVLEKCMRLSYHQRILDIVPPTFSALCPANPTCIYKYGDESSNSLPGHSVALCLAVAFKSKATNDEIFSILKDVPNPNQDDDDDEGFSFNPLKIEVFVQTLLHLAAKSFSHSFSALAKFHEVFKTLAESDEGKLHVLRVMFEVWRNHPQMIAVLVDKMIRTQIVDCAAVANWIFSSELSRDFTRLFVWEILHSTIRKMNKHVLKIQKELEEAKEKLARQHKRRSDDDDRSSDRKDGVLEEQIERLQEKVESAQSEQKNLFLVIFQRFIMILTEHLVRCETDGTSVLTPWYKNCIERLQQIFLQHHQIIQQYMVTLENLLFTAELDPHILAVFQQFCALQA
UniProt P38919: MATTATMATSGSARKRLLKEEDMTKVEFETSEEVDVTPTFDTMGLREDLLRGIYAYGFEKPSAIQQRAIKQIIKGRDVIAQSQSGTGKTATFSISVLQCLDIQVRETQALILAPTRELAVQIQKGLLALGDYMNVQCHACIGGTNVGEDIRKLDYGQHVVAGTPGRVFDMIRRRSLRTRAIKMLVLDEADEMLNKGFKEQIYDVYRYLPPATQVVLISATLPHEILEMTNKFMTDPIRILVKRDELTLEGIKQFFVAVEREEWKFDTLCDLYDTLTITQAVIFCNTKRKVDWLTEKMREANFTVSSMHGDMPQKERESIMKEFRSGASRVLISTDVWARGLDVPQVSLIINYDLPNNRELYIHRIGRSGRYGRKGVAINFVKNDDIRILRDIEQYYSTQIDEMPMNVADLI

T1: endogenous DHX34 (human (endogenous in HEK293T)) (UniProt Q14147)
T1 sequence: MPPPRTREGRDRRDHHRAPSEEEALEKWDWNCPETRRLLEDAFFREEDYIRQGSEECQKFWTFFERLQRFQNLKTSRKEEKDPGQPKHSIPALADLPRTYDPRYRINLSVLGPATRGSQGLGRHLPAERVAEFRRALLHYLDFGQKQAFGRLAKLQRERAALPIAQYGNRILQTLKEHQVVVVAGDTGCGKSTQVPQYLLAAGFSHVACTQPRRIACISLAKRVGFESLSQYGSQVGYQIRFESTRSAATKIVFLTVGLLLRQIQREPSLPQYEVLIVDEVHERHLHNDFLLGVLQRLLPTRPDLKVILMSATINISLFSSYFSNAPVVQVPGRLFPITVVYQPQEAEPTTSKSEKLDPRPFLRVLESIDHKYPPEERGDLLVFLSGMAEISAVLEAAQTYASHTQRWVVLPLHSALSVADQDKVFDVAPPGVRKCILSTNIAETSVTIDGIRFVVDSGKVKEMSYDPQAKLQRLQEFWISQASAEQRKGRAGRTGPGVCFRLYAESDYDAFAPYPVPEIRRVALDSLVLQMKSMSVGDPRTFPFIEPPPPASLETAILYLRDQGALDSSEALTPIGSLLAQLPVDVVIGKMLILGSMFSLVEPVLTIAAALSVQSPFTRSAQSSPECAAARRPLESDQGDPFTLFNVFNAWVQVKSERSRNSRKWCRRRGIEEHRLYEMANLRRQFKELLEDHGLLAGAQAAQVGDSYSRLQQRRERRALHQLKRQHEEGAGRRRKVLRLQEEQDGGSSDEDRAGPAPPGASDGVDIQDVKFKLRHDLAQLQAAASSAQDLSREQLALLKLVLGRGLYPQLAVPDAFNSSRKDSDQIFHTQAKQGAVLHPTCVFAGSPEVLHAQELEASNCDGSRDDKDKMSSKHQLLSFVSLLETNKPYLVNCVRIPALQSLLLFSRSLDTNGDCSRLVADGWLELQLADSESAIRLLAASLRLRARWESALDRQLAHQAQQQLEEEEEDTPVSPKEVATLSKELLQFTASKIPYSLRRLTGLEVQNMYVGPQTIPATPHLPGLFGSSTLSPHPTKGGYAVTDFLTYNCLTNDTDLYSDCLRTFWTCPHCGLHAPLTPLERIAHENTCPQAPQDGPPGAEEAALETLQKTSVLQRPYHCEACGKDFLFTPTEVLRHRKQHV

B1: 5' to 3' exonuclease XRN2 (protein, UniProt Q9H0D6 1-950)
chain: MGVPAFFRWLSRKYPSIIVNCVEEKPKECNGVKIPVDASKPNPNDVEFDNLYLDMNGIIHPCTHPEDKPAPKNEDEMMVAIFEYIDRLFSIVRPRRLLYMAIDGVAPRAKMNQQRSRRFRASKEGMEAAVEKQRVREEILAKGGFLPPEEIKERFDSNCITPGTEFMDNLAKCLRYYIADRLNNDPGWKNLTVILSDASAPGEGEHKIMDYIRRQRAQPNHDPNTHHCLCGADADLIMLGLATHEPNFTIIREEFKPNKPKPCGLCNQFGHEVKDCEGLPREKKGKHDELADSLPCAEGEFIFLRLNVLREYLERELTMASLPFTFDVERSIDDWVFMCFFVGNDFLPHLPSLEIRENAIDRLVNIYKNVVHKTGGYLTESGYVNLQRVQMIMLAVGEVEDSIFKKRKDDEDSFRRRQKEKRKRMKRDQPAFTPSGILTPHALGSRNSPGSQVASNPRQAAYEMRMQNNSSPSISPNTSFTSDGSPSPLGGIKRKAEDSDSEPEPEDNVRLWEAGWKQRYYKNKFDVDAADEKFRRKVVQSYVEGLCWVLRYYYQGCASWKWYYPFHYAPFASDFEGIADMPSDFEKGTKPFKPLEQLMGVFPAASGNFLPPSWRKLMSDPDSSIIDFYPEDFAIDLNGKKYAWQGVALLPFVDERRLRAALEEVYPDLTPEETRRNSLGGDVLFVGKHHPLHDFILELYQTGSTEPVEVPPELCHGIQGKFSLDEEAILPDQIVCSPVPMLRDLTQNTVVSINFKDPQFAEDYIFKAVMLPGARKPAAVLKPSDWEKSSNGRQWKPQLGFNRDRRPVHLDQAAFRTLGHVMPRGSGTGIYSNAAPPPVTYQGNLYRPLLRGQAQIPKLMSNMRPQDSWRGPPPLFQQQRFDRGVGAEPLLPWNRMLQTQNAAFQPNQYQMLAGPGGYPPRRDDRGGRQGYPREGRKYPLPPPSGRYNWN
B2: RNA helicase MOV10 (protein, UniProt Q9HCE1 1-1003)
chain: MPSKFSCRQLREAGQCFESFLVVRGLDMETDRERLRTIYNRDFKISFGTPAPGFSSMLYGMKIANLAYVTKTRVRFFRLDRWADVRFPEKRRMKLGSDISKHHKSLLAKIFYDRAEYLHGKHGVDVEVQGPHEARDGQLLIRLDLNRKEVLTLRLRNGGTQSVTLTHLFPLCRTPQFAFYNEDQELPCPLGPGECYELHVHCKTSFVGYFPATVLWELLGPGESGSEGAGTFYIARFLAAVAHSPLAAQLKPMTPFKRTRITGNPVVTNRIEEGERPDRAKGYDLELSMALGTYYPPPRLRQLLPMLLQGTSIFTAPKEIAEIKAQLETALKWRNYEVKLRLLLHLEELQMEHDIRHYDLESVPMTWDPVDQNPRLLTLEVPGVTESRPSVLRGDHLFALLSSETHQEDPITYKGFVHKVELDRVKLSFSMSLLSRFVDGLTFKVNFTFNRQPLRVQHRALELTGRWLLWPMLFPVAPRDVPLLPSDVKLKLYDRSLESNPEQLQAMRHIVTGTTRPAPYIIFGPPGTGKTVTLVEAIKQVVKHLPKAHILACAPSNSGADLLCQRLRVHLPSSIYRLLAPSRDIRMVPEDIKPCCNWDAKKGEYVFPAKKKLQEYRVLITTLITAGRLVSAQFPIDHFTHIFIDEAGHCMEPESLVAIAGLMEVKETGDPGGQLVLAGDPRQLGPVLRSPLTQKHGLGYSLLERLLTYNSLYKKGPDGYDPQFITKLLRNYRSHPTILDIPNQLYYEGELQACADVVDRERFCRWAGLPRQGFPIIFHGVMGKDEREGNSPSFFNPEEAATVTSYLKLLLAPSSKKGKARLSPRSVGVISPYRKQVEKIRYCITKLDRELRGLDDIKDLKVGSVEEFQGQERSVILISTVRSSQSFVQLDLDFNLGFLKNPKRFNVAVTRAKALLIIVGNPLLLGHDPDWKVFLEFCKENGGYTGCPFPAKLDLQQGQNLLQGLSKLSPSTSGPHSHDYLPQEREGEGGLSLQVEPEWRNEL
B3: endogenous UPF1 (protein, UniProt Q92900 1-1129)
chain: MSVEAYGPSSQTLTFLDTEEAELLGADTQGSEFEFTDFTLPSQTQTPPGGPGGPGGGGAGGPGGAGAGAAAGQLDAQVGPEGILQNGAVDDSVAKTSQLLAELNFEEDEEDTYYTKDLPIHACSYCGIHDPACVVYCNTSKKWFCNGRGNTSGSHIVNHLVRAKCKEVTLHKDGPLGETVLECYNCGCRNVFLLGFIPAKADSVVVLLCRQPCASQSSLKDINWDSSQWQPLIQDRCFLSWLVKIPSEQEQLRARQITAQQINKLEELWKENPSATLEDLEKPGVDEEPQHVLLRYEDAYQYQNIFGPLVKLEADYDKKLKESQTQDNITVRWDLGLNKKRIAYFTLPKTDSGNEDLVIIWLRDMRLMQGDEICLRYKGDLAPLWKGIGHVIKVPDNYGDEIAIELRSSVGAPVEVTHNFQVDFVWKSTSFDRMQSALKTFAVDETSVSGYIYHKLLGHEVEDVIIKCQLPKRFTAQGLPDLNHSQVYAVKTVLQRPLSLIQGPPGTGKTVTSATIVYHLARQGNGPVLVCAPSNIAVDQLTEKIHQTGLKVVRLCAKSREAIDSPVSFLALHNQIRNMDSMPELQKLQQLKDETGELSSADEKRYRALKRTAERELLMNADVICCTCVGAGDPRLAKMQFRSILIDESTQATEPECMVPVVLGAKQLILVGDHCQLGPVVMCKKAAKAGLSQSLFERLVVLGIRPIRLQVQYRMHPALSAFPSNIFYEGSLQNGVTAADRVKKGFDFQWPQPDKPMFFYVTQGQEEIASSGTSYLNRTEAANVEKITTKLLKAGAKPDQIGIITPYEGQRSYLVQYMQFSGSLHTKLYQEVEIASVDAFQGREKDFIILSCVRANEHQGIGFLNDPRRLNVALTRARYGVIIVGNPKALSKQPLWNHLLNYYKEQKVLVEGPLNNLRESLMQFSKPRKLVNTINPGARFMTTAMYDAREAIIPGSVYDRSSQGRPSSMYFQTHDQIGMISAGPSHVAAMNIPIPFNLVMPPMPPPGYFGQANGPAAGRGTPKGKTGRGGRQKNRFGLPGPSQTNLPNSQASQDVASQPFSQGALTQGYISMSQPSQMSQPGLSQPELSQDSYLGDEFKSQIDVALSQDSTYQGERAYQHGGVTGLSQY

Target: T1, endogenous DHX34 (human (endogenous in HEK293T))
Assay: affinity purification with mass spectrometry; endogenous DHX34 immunopurified from HEK293T cells, in the absence of RNases; preimmune serum as control; nLC-MS/MS

binding | Molecule
binds | mRNA Cap-binding protein CBP80 (from UniProt Q09161 1-790)
binds | EJC component eIF4A3 (from UniProt P38919 1-411)
binds | B1
binds | B2
binds | B3

Results are given in words; binding and its absence hold for the method and conditions named. In cells and extracts the contact can be indirect. A yes stands for co-enrichment or nearness to the bait. Other partners may have been found.
